{"source": "patent US5318984A", "about": "“Imidazoles for the treatment of atherosclerosis” (priority 1992, dated 1994)", "biological_target": "T1, Acyl-CoA: Cholesterol Acyltransferase (ACAT) (Rattus norvegicus, UniProt Q7TQM4)", "T1 construct": "Microsomes were obtained by differential centrifugation; from tissue; host or cells: liver microsomes of male Sprague Dawley rats", "T1 sequence (Q7TQM4 1-524)": "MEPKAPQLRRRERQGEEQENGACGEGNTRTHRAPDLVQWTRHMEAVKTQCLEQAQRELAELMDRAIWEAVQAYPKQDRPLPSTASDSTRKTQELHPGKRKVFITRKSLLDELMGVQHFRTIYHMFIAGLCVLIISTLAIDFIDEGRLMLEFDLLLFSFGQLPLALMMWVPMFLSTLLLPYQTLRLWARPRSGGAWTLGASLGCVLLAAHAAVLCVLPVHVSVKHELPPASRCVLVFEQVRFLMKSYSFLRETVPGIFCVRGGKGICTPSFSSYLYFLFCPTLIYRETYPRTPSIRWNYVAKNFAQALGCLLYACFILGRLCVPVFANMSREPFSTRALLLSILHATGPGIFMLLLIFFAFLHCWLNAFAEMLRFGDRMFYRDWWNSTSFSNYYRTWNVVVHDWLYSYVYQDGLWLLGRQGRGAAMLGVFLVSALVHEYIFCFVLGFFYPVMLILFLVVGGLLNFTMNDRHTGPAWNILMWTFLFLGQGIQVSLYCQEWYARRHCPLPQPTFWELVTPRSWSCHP", "assay": "Inhibition of Acyl-CoA: Cholesterol Acyltransferase (ACAT) in Hepatic Microsomes", "format": "biochemical, Sprague Dawley rats", "conditions": "14C-oleoyl-CoA, pH 7.4, 37° C., read-out: In Vitro ACAT IC50", "experimental": "A. Assay of the Inhibition of Acyl-CoA: Cholesterol Acyltransferase (ACAT) in Hepatic Microsomes\nThe ability of the compounds to inhibit ACAT, the enzyme responsible for the intracellular synthesis of cholesteryl esters, was tested as follows. Male Sprague Dawley rats weighing 150-300 g, were fed rat chow ad libitum. The animals were fasted for twenty-four hours prior to being sacrificed by decapitation. The livers were perfused in situ with 50 ml of cold 0.25M sucrose, excised, and homogenized in three volumes of 0.1M phosphate buffer, pH 7.4, that contained 0.5 mM EDTA (ethylenediaminetetraacetic acid), 1.0 mM glutathione, 0.25M sucrose and […]. Microsomes were obtained by differential centrifugation; the supernatant from an initial spin at 15,000×g for 15 minutes was centrifuged at 105,000×g for 1 hour to pellet the microsomes. The microsomes were suspended in homogenization buffer, reisolated by centrifugation, and stored at -70° C. Microsomes were used within one month of preparation.\nThe control assay in a final volume of 200 μl consisted of 200 μg of microsomal protein, 75 μM ^14 C-oleoyl-CoA (10,000 dpm/nmol) in 0.1M phosphate, pH 7.4, that contained 1 mM glutathione. […] The lipids were visualized by their interaction with iodine vapor and the cholesteryl ester spot was scraped into a scintillation vial and counted.", "note": "pIC50: −log10 of the molar value. For at least one compound, name, drawing or mass did not settle the structure.", "data": [{"compound": "CCCCCCCN(CCCCCSc1nc(-c2ccccc2)c(-c2ccccc2)[nH]1)C(=O)Nc1c(F)cc(F)cc1F", "note": "[Example 71, N-[5-(4,5-diphenyl-1H-imidazol-2-ylthio)pentyl]heptyl-N'-(2,4,6-trifluorophenyl) urea]", "values": [{"measurement": "pIC50", "value": 7.80}]}]}
